From patent US20130096058A1
These are yes or no findings as the source states them, for the method shown. Some binding calls cover weakened binding; strength is not graded here.

Chains of the proteins cited; added tags and fusions are not shown. Residues count along the entry.
UniProt O14763, residues 52-183: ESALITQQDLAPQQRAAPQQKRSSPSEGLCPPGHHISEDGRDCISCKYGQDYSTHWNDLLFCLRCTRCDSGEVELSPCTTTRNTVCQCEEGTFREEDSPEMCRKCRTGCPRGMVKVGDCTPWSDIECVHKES

Experiments:
[1] = target: human TRAIL R2-Fc (human) (UniProt O14763); experiment: capture ELISA: His-tagged construct captured from E. coli media on anti-His antibody, biotinylated TRAIL R2 (axis: TrailR2-Fc) titrated, streptavidin-HRP
TRAIL R2 (human) = TRAIL R2 (human) (UniProt O14763); experiment: capture ELISA: His-tagged Tn3 on anti-His antibody, biotinylated TRAIL R2

binding [1]: binds | binding (TRAIL R2 (human)): binds
B1: A1 (1E11) (designed binder)
chain: AIEVKDVTDTTALITWAKPWVDPPPLWGCELAYGIKDVPGDRTTIDLQQKHTAYSIGNLKPDTEYEVSLICFDPYGAKSNPAKETFTTGGGTLGHHHHHHHH
